Publication PMC5476288 (PLoS Pathogens, 2017)
Read-outs that look alike come from different tables or passages of the source. These are yes or no findings as the source states them, for the method shown. Binding seen in cells or lysates may run through a third protein. Some results given as binding are weak or reduced against the parent protein; the word gives no strength. For some of these results: Tags and fused reporters may be left off the sequences shown. Blank lines part the entries; values can stand above or below the molecule they belong to.

What was measured:
Flag-ERRα [1] = molecular target: T1, Flag-ERRα (UniProt P11474); experiment: co-IP
T1 sequence: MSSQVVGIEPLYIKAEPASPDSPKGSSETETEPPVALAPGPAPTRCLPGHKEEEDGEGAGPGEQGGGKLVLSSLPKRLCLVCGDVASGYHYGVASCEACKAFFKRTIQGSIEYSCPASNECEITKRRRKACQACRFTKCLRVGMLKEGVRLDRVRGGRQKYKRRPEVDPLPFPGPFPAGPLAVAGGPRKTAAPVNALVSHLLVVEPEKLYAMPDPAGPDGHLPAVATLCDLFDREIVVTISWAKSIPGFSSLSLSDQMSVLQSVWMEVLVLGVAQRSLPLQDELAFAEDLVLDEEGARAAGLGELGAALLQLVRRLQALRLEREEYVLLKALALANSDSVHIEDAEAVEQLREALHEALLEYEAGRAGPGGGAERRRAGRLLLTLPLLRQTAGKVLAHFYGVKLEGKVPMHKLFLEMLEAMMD

[2] = molecular target: T2, endogenous TBK1 (human (endogenous in 293T)) (UniProt Q9UHD2); experiment: proximity ligation
T2 sequence: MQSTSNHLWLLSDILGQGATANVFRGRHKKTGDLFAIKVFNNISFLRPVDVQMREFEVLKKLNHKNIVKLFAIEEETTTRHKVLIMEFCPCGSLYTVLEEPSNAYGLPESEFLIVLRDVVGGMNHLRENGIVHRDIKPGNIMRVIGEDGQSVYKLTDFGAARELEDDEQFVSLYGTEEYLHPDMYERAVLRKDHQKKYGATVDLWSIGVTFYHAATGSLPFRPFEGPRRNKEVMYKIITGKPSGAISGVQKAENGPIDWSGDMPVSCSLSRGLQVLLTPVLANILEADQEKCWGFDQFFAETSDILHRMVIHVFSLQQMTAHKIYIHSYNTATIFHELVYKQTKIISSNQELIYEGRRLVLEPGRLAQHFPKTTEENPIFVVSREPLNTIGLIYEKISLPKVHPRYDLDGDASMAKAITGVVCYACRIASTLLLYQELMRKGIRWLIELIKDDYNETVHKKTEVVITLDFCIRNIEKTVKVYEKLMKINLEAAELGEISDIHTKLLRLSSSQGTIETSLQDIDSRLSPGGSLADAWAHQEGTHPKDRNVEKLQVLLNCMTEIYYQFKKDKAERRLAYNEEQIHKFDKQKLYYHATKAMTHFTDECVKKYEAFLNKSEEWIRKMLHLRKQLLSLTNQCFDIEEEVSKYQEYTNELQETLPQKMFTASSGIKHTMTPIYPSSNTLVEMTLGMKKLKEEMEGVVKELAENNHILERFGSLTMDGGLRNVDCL

Flag-IRF3 = molecular target: T3, Flag-IRF3 (human, UniProt Q14653 1-427); experiment: co-IP
T3 construct: not shown: Flag, N-terminal, kept
T3 sequence (looked up): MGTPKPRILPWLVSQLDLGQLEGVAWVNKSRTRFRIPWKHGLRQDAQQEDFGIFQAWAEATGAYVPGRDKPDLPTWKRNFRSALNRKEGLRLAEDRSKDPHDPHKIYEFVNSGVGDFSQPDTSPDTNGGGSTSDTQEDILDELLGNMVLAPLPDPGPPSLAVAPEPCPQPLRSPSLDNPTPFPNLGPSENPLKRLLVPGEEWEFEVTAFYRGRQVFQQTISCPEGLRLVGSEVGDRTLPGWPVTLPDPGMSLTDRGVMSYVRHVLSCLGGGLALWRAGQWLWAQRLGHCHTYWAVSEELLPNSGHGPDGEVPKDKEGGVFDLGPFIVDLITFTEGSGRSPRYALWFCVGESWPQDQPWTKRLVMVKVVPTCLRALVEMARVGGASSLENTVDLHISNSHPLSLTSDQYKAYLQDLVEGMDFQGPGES

Flag-ERRα [3] = molecular target: T1, Flag-ERRα; experiment: co-IP; remark: listed apart in the source
GST-ERRα fusion protein = molecular target: T4, GST-ERRα fusion protein (UniProt P11474); experiment: pull-down; lysates of 293T cells with ectopic Flag-TBK1 or Flag-IRF3 incubated with GST or the GST-ERRα fusion protein; only the target purified
T4 sequence: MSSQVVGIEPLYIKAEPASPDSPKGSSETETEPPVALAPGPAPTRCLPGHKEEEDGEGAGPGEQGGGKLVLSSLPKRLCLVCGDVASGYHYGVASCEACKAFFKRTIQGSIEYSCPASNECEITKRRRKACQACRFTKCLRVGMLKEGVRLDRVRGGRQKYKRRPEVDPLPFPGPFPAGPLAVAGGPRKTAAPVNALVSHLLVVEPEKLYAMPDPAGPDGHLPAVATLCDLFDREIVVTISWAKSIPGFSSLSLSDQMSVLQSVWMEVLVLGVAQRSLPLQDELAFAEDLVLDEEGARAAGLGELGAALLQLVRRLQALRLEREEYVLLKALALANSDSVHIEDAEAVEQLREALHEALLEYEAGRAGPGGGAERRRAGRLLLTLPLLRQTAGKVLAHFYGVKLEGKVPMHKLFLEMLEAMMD

HA-IKKε = molecular target: T5, HA-IKKε (UniProt Q14164); experiment: co-IP
T5 sequence: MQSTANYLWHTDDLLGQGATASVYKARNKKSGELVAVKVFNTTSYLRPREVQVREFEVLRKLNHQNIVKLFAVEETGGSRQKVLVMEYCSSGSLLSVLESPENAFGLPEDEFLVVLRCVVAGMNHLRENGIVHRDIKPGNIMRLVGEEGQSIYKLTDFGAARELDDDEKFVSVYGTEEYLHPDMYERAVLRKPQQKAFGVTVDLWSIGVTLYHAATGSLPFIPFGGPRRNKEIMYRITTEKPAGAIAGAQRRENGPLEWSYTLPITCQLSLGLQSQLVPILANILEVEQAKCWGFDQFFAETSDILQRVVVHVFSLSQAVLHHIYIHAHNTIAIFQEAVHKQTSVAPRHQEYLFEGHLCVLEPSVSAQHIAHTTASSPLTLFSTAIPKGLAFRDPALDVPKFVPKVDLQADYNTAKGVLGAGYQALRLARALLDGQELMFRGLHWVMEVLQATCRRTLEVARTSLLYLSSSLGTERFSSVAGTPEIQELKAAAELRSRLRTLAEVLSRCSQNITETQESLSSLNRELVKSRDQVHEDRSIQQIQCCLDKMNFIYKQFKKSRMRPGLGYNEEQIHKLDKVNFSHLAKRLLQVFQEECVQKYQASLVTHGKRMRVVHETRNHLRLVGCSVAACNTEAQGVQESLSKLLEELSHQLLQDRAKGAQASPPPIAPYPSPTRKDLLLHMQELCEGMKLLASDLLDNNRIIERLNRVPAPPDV

HA-TBK1 = molecular target: T6, HA-TBK1 (UniProt Q9UHD2); experiment: co-IP
T6 sequence: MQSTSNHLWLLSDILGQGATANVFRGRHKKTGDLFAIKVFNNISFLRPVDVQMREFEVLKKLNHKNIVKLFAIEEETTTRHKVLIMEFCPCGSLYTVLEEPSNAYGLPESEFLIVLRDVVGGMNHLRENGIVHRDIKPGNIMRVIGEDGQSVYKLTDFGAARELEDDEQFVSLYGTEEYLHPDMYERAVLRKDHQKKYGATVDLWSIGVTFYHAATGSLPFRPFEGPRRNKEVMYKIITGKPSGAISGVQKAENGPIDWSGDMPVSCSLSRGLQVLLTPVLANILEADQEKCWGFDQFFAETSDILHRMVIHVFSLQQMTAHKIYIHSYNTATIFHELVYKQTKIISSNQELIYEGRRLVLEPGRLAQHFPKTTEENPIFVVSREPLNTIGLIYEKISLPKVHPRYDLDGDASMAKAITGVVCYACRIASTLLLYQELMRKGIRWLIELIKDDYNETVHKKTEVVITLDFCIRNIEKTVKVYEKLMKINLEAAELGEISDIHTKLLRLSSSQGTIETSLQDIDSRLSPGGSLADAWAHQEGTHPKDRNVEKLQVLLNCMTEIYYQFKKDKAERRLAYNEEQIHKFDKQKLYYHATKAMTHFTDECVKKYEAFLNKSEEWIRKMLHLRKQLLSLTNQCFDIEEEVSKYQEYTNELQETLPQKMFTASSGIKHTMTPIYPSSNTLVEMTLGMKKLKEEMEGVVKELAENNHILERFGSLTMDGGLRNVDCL

[4] = molecular target: T2, endogenous TBK1 (human (endogenous in 293T)); experiment: co-IP
[5] = molecular target: T2, endogenous TBK1 (human (endogenous in 293T)); experiment: proximity ligation; remark: listed apart in the source

Molecule: endogenous IRF3 (from UniProt Q14653 1-427)
binding [2]: binds

B2: Flag-TBK1 (enzyme, UniProt Q9UHD2 1-729)
chain: MQSTSNHLWLLSDILGQGATANVFRGRHKKTGDLFAIKVFNNISFLRPVDVQMREFEVLKKLNHKNIVKLFAIEEETTTRHKVLIMEFCPCGSLYTVLEEPSNAYGLPESEFLIVLRDVVGGMNHLRENGIVHRDIKPGNIMRVIGEDGQSVYKLTDFGAARELEDDEQFVSLYGTEEYLHPDMYERAVLRKDHQKKYGATVDLWSIGVTFYHAATGSLPFRPFEGPRRNKEVMYKIITGKPSGAISGVQKAENGPIDWSGDMPVSCSLSRGLQVLLTPVLANILEADQEKCWGFDQFFAETSDILHRMVIHVFSLQQMTAHKIYIHSYNTATIFHELVYKQTKIISSNQELIYEGRRLVLEPGRLAQHFPKTTEENPIFVVSREPLNTIGLIYEKISLPKVHPRYDLDGDASMAKAITGVVCYACRIASTLLLYQELMRKGIRWLIELIKDDYNETVHKKTEVVITLDFCIRNIEKTVKVYEKLMKINLEAAELGEISDIHTKLLRLSSSQGTIETSLQDIDSRLSPGGSLADAWAHQEGTHPKDRNVEKLQVLLNCMTEIYYQFKKDKAERRLAYNEEQIHKFDKQKLYYHATKAMTHFTDECVKKYEAFLNKSEEWIRKMLHLRKQLLSLTNQCFDIEEEVSKYQEYTNELQETLPQKMFTASSGIKHTMTPIYPSSNTLVEMTLGMKKLKEEMEGVVKELAENNHILERFGSLTMDGGLRNVDCL
binding (GST-ERRα fusion protein): binds

B4: endogenous ERRα (protein, UniProt P11474 1-423)
chain: MSSQVVGIEPLYIKAEPASPDSPKGSSETETEPPVALAPGPAPTRCLPGHKEEEDGEGAGPGEQGGGKLVLSSLPKRLCLVCGDVASGYHYGVASCEACKAFFKRTIQGSIEYSCPASNECEITKRRRKACQACRFTKCLRVGMLKEGVRLDRVRGGRQKYKRRPEVDPLPFPGPFPAGPLAVAGGPRKTAAPVNALVSHLLVVEPEKLYAMPDPAGPDGHLPAVATLCDLFDREIVVTISWAKSIPGFSSLSLSDQMSVLQSVWMEVLVLGVAQRSLPLQDELAFAEDLVLDEEGARAAGLGELGAALLQLVRRLQALRLEREEYVLLKALALANSDSVHIEDAEAVEQLREALHEALLEYEAGRAGPGGGAERRRAGRLLLTLPLLRQTAGKVLAHFYGVKLEGKVPMHKLFLEMLEAMMD
binding [4]: binds
binding [5]: binds

Now from value to molecule:

binding (Flag-ERRα [1]): binds
Molecule: HA-IRF3 (from UniProt Q14653 1-427)

binding (Flag-IRF3): binds
binding (Flag-ERRα [3]): binds
B1: HA-IKKε (enzyme, UniProt Q14164 1-716)
chain: MQSTANYLWHTDDLLGQGATASVYKARNKKSGELVAVKVFNTTSYLRPREVQVREFEVLRKLNHQNIVKLFAVEETGGSRQKVLVMEYCSSGSLLSVLESPENAFGLPEDEFLVVLRCVVAGMNHLRENGIVHRDIKPGNIMRLVGEEGQSIYKLTDFGAARELDDDEKFVSVYGTEEYLHPDMYERAVLRKPQQKAFGVTVDLWSIGVTLYHAATGSLPFIPFGGPRRNKEIMYRITTEKPAGAIAGAQRRENGPLEWSYTLPITCQLSLGLQSQLVPILANILEVEQAKCWGFDQFFAETSDILQRVVVHVFSLSQAVLHHIYIHAHNTIAIFQEAVHKQTSVAPRHQEYLFEGHLCVLEPSVSAQHIAHTTASSPLTLFSTAIPKGLAFRDPALDVPKFVPKVDLQADYNTAKGVLGAGYQALRLARALLDGQELMFRGLHWVMEVLQATCRRTLEVARTSLLYLSSSLGTERFSSVAGTPEIQELKAAAELRSRLRTLAEVLSRCSQNITETQESLSSLNRELVKSRDQVHEDRSIQQIQCCLDKMNFIYKQFKKSRMRPGLGYNEEQIHKLDKVNFSHLAKRLLQVFQEECVQKYQASLVTHGKRMRVVHETRNHLRLVGCSVAACNTEAQGVQESLSKLLEELSHQLLQDRAKGAQASPPPIAPYPSPTRKDLLLHMQELCEGMKLLASDLLDNNRIIERLNRVPAPPDV

binding (Flag-IRF3): binds
binding (HA-IKKε): binds
binding (HA-TBK1): binds
B3: Myc-ERRα (protein, UniProt P11474 1-423)
chain: MSSQVVGIEPLYIKAEPASPDSPKGSSETETEPPVALAPGPAPTRCLPGHKEEEDGEGAGPGEQGGGKLVLSSLPKRLCLVCGDVASGYHYGVASCEACKAFFKRTIQGSIEYSCPASNECEITKRRRKACQACRFTKCLRVGMLKEGVRLDRVRGGRQKYKRRPEVDPLPFPGPFPAGPLAVAGGPRKTAAPVNALVSHLLVVEPEKLYAMPDPAGPDGHLPAVATLCDLFDREIVVTISWAKSIPGFSSLSLSDQMSVLQSVWMEVLVLGVAQRSLPLQDELAFAEDLVLDEEGARAAGLGELGAALLQLVRRLQALRLEREEYVLLKALALANSDSVHIEDAEAVEQLREALHEALLEYEAGRAGPGGGAERRRAGRLLLTLPLLRQTAGKVLAHFYGVKLEGKVPMHKLFLEMLEAMMD
